Measured values published in the supplement of paper PMC12819154, “High-throughput peptide-centric local stability assay extends protein–ligand identification to membrane proteins, tissues and bacteria” (Nature Structural & Molecular Biology, 2025).
This is one part of the list. Small differences around the control level are noise.

Chains of the proteins cited; added tags and fusions are not shown. Lines headed by an entry give the natural chain unless they say otherwise; changes in a name come on top.
UniProt O88531: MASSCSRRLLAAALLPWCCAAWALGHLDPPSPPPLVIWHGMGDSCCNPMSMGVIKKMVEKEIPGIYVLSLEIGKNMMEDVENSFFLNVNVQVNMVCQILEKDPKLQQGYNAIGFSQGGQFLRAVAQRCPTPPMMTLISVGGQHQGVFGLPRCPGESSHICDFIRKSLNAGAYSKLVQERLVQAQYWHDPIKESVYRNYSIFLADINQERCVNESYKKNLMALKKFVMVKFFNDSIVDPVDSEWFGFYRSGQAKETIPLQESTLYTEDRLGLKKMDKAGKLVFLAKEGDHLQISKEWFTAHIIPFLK
UniProt O70251: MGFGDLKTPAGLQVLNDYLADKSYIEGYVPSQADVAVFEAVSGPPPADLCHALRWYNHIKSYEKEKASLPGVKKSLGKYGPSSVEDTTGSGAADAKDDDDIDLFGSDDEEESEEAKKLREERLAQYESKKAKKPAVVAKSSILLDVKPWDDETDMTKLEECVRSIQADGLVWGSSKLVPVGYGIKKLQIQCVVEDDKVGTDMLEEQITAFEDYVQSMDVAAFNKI
UniProt O88466: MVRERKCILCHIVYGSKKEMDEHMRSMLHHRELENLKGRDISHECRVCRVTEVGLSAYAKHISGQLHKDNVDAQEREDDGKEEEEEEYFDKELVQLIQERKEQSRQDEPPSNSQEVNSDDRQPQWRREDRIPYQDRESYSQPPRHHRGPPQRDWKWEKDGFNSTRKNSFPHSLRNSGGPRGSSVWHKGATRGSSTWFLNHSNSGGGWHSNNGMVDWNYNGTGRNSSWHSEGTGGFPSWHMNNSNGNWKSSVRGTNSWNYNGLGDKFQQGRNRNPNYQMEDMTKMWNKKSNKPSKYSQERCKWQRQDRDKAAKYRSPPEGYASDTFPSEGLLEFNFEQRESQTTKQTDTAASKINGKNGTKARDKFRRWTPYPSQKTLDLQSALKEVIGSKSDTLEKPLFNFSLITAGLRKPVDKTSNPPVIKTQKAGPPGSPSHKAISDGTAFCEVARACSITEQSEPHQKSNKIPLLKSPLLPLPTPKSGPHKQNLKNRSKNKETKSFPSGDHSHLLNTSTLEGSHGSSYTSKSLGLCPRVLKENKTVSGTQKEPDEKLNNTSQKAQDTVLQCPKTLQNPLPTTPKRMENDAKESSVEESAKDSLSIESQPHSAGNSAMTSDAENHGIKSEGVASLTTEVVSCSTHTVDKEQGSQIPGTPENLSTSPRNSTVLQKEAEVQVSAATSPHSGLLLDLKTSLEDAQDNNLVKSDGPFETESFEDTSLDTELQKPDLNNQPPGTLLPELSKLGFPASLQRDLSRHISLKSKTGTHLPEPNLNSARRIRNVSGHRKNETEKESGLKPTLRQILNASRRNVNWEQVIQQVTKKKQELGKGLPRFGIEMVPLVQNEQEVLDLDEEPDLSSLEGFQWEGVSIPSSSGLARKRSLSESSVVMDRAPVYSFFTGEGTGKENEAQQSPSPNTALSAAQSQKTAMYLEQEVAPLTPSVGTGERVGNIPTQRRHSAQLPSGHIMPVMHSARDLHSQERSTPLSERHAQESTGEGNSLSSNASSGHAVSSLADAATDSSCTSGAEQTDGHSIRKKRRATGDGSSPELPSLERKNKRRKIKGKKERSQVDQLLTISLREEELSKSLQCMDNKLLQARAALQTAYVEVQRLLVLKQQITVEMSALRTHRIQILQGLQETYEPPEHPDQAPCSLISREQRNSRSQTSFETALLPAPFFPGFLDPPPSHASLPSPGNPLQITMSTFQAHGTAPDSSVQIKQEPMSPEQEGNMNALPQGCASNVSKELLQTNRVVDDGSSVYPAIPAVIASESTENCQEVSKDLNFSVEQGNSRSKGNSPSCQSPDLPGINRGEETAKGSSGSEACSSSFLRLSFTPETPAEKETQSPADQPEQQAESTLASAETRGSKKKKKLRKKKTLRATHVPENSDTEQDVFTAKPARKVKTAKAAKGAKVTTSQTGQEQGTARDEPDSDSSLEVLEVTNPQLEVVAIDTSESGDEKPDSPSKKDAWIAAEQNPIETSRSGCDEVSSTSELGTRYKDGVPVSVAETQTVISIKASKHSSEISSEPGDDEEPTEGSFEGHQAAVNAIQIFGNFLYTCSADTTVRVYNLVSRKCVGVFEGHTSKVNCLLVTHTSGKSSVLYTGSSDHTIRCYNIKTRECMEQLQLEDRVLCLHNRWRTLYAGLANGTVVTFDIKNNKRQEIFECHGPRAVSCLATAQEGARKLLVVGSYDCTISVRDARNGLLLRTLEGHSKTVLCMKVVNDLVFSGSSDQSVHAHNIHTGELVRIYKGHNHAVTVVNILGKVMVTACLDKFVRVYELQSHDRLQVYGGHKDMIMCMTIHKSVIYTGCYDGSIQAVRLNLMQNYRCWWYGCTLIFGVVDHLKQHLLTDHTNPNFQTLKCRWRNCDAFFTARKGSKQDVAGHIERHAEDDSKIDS
UniProt O88876: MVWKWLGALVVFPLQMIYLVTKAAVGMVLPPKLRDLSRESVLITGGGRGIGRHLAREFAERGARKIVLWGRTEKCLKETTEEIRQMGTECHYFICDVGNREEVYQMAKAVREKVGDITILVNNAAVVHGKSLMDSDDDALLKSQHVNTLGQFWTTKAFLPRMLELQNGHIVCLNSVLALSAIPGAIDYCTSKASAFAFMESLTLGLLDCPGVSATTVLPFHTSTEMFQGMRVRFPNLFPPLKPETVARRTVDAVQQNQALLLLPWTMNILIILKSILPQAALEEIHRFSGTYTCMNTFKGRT
UniProt O35904: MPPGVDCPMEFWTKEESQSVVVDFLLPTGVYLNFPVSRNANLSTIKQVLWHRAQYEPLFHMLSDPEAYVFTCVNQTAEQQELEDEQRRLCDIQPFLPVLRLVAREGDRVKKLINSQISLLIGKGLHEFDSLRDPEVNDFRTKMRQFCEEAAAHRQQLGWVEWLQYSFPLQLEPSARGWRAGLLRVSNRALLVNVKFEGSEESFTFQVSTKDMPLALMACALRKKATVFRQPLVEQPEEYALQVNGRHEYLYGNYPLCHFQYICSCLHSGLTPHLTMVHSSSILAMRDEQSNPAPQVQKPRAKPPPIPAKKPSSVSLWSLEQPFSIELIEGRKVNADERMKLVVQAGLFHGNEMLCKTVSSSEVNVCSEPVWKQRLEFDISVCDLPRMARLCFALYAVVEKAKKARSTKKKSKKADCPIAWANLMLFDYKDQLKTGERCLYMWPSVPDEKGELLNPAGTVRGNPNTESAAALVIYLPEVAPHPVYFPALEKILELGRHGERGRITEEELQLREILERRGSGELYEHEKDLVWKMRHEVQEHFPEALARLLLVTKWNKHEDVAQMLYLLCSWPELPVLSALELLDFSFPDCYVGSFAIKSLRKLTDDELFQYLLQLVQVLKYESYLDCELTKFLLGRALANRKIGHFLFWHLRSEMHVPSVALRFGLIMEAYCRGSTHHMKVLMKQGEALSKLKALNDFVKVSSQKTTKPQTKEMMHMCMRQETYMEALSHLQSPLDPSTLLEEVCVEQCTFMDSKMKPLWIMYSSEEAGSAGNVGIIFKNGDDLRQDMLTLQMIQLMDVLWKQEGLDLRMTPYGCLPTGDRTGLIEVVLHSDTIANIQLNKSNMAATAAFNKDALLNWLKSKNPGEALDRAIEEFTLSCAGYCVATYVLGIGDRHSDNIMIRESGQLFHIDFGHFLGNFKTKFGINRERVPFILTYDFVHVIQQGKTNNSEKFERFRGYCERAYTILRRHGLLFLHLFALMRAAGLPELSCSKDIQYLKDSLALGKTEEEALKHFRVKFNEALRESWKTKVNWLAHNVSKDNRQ
UniProt O55127: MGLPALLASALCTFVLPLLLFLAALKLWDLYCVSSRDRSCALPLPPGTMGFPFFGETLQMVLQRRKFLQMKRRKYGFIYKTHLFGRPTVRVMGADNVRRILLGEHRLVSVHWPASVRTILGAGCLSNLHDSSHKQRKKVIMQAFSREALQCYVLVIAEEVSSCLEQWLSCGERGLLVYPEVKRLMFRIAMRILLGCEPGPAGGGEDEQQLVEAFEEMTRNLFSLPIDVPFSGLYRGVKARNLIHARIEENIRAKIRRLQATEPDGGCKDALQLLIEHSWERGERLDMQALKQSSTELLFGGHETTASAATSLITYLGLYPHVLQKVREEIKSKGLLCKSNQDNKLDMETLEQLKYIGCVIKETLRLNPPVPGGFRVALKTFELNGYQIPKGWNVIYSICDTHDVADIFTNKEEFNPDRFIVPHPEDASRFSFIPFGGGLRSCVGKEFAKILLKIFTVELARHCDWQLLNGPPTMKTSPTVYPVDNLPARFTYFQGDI
UniProt O88736: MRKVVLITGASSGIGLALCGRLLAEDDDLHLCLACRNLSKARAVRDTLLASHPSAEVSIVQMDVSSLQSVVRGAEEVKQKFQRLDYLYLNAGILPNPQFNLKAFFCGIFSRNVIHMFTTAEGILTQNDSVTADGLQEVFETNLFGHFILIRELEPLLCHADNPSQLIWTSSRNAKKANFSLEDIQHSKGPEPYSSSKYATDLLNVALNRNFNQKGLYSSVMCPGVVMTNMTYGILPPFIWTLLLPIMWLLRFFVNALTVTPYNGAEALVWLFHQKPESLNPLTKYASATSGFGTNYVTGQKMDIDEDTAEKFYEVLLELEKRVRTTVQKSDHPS
UniProt O70400: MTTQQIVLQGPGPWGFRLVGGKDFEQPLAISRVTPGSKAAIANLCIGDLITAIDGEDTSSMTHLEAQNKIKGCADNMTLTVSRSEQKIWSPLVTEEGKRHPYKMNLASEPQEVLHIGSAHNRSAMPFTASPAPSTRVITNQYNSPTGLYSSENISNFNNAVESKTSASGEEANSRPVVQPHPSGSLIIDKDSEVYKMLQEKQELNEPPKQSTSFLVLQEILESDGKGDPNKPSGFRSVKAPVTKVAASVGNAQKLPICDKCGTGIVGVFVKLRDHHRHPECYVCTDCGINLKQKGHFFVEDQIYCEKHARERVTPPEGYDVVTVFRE
UniProt O70230: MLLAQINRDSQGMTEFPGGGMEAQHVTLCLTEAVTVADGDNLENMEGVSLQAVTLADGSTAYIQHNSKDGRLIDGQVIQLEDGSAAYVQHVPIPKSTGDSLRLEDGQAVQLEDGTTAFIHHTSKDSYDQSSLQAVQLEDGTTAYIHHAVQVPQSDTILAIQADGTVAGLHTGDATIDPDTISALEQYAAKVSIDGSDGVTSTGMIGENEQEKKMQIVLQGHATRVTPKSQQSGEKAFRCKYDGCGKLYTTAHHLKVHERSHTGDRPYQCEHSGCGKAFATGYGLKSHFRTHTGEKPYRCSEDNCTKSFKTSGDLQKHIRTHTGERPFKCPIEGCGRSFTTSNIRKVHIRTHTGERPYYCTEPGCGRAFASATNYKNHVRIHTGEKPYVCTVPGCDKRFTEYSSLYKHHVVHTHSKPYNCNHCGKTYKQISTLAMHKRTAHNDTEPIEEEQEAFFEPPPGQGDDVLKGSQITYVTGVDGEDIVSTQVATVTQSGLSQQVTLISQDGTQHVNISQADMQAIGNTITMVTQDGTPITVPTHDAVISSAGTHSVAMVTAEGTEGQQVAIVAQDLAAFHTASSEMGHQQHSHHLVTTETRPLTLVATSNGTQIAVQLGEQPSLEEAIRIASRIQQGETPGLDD
UniProt O88587: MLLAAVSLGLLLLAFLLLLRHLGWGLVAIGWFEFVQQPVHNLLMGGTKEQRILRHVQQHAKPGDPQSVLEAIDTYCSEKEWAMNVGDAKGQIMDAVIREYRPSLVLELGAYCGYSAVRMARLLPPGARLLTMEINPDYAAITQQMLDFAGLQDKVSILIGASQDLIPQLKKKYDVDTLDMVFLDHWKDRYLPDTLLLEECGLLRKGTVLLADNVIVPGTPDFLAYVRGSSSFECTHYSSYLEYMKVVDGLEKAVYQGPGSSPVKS
UniProt O35887: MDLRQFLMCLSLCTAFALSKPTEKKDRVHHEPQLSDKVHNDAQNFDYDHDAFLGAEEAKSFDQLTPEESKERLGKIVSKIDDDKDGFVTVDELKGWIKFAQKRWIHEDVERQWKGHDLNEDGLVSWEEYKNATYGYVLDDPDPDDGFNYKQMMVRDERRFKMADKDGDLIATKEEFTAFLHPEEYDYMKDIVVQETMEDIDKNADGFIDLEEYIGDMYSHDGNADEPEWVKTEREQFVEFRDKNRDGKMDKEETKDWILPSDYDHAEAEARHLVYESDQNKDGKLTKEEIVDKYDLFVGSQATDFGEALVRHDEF
UniProt O70443: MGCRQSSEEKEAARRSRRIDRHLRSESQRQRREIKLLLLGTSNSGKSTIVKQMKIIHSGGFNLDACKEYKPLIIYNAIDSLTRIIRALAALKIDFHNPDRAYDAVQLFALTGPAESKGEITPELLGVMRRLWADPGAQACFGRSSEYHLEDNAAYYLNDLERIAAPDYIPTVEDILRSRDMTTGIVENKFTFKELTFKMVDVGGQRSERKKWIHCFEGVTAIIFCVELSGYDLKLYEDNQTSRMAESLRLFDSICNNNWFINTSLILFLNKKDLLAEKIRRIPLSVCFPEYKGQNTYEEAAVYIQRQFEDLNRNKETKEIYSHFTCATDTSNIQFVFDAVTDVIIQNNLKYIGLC

These targets were tested with CN[C@@H]1C[C@H]2O[C@@](C)([C@@H]1OC)n1c3ccccc3c3c4c(c5c6ccccc6n2c5c31)C(=O)NC4 [staurosporine] (assay: log2 fold change of tryptic peptide abundance, ligand vs vehicle (limited proteolysis) (log2 ratio); higher = more trypsin-susceptible (destabilized)). Conditions: ligand concentration: 20 uM; sample: mouse liver crude lysate; replicate design: treated separately.
Work on “UniProt O88531 (peptide sequence: LVQAQYWHDPIKESVYR, peptide start residue: 180)” yielded a log2 fold change of 0.336. In the case of “UniProt O88783 (peptide sequence: QEEENSGFQKR, peptide start residue: 995)”, the log2 fold change is reported as -0.592. Target “UniProt O35654 (peptide sequence: EISEEHNLVPQPPR, peptide start residue: 110)” has a log2 fold change of -0.131. Target “UniProt O70251 (peptide sequence: LVPVGYGIKK, peptide start residue: 177)” has a log2 fold change of 0.203. “UniProt O55042 (peptide sequence: EGVVHGVTTVAEK, peptide start residue: 46)” gave a log2 fold change of 0.144. With “UniProt O54714 (peptide sequence: VSLMCPLGK, peptide start residue: 342)” the log2 fold change was 0.219. For “UniProt O54818 (peptide sequence: SWHDMQTTTAYKK, peptide start residue: 86)”, the log2 fold change was 0.318. Work on “UniProt O70479 (peptide sequence: RYSTYDDR, peptide start residue: 299)” yielded a log2 fold change of 0.031. “UniProt O88466 (peptide sequence: HSAQLPSGHIMPVMHSAR, peptide start residue: 952)” gave a log2 fold change of -0.612. In the case of “UniProt O88876 (peptide sequence: VRFPNLFPPLKPETVAR, peptide start residue: 232)”, the log2 fold change is reported as -0.126. “UniProt O35904 (peptide sequence: DEQSNPAPQVQKPR, peptide start residue: 287)” was tested, and the log2 fold change was 0.00528. For “UniProt O35711 (peptide sequence: DSSFLAEQKYPTLPGK, peptide start residue: 412)”, the log2 fold change was -0.23. “UniProt O55127 (peptide sequence: LNPPVPGGFR, peptide start residue: 366)” gave a log2 fold change of 0.309. Target “UniProt O70165 (peptide sequence: VVGLGAQDK, peptide start residue: 33)” has a log2 fold change of -0.242. For “UniProt O54984 (peptide sequence: LLNFPTIVER, peptide start residue: 176)”, the log2 fold change was 0.103. With “UniProt O88736 (peptide sequence: LLAEDDDLHLCLACR, peptide start residue: 22)” the log2 fold change was -0.446. “UniProt O54834 (peptide sequence: LSLNPIYR, peptide start residue: 403)” showed a log2 fold change of -0.348. In the case of “UniProt O55029 (peptide sequence: LPEAAFLAR, peptide start residue: 751)”, the log2 fold change is reported as 0.128. “UniProt O70400 (peptide sequence: ERVTPPEGYDVVTVFRE, peptide start residue: 311)” was tested, and the log2 fold change was -0.409. Target “UniProt O70172 (peptide sequence: CHENAPR, peptide start residue: 343)” has a log2 fold change of 0.408. For “UniProt O70230 (peptide sequence: MQIVLQGHATR, peptide start residue: 214)”, the log2 fold change was -0.155. In the case of “UniProt O55229 (peptide sequence: LEQYLPSRPLK, peptide start residue: 144)”, the log2 fold change is reported as -0.701. With “UniProt O70439 (peptide sequence: EKEFVAR, peptide start residue: 115)” the log2 fold change was -0.182. Target “UniProt O88587 (peptide sequence: YDVDTLDMVFLDHWK, peptide start residue: 173)” has a log2 fold change of 0.771. “UniProt O88851 (peptide sequence: GHFQNTEFHELISVVK, peptide start residue: 164)” was tested, and the log2 fold change was -0.303. With “UniProt O88329 (peptide sequence: YLGLLENVR, peptide start residue: 618)” the log2 fold change was -0.149. For “UniProt O54825 (peptide sequence: FYNLVLLPR, peptide start residue: 248)”, the log2 fold change was 0.358. Target “UniProt O35516 (peptide sequence: EPVGQDAVGLK, peptide start residue: 1730)” has a log2 fold change of -0.292. “UniProt O35887 (peptide sequence: GHDLNEDGLVSWEEYK, peptide start residue: 115)” gave a log2 fold change of -0.102. Target “UniProt O88796 (peptide sequence: KPRPSEADDESLPVCK, peptide start residue: 247)” has a log2 fold change of -0.0465. In the case of “Q8BR92 (peptide sequence: LFEEDEREKEQFCVR, peptide start residue: 193) (UniProt O54931)”, the log2 fold change is reported as 0.209. “UniProt O54692 (peptide sequence: NIFHLFHDVVPTYHK, peptide start residue: 514)” was tested, and the log2 fold change was 0.25. Work on “UniProt O70443 (peptide sequence: MVDVGGQR, peptide start residue: 220)” yielded a log2 fold change of -0.334. In the case of “UniProt O88196 (peptide sequence: KWQQEKK, peptide start residue: 1542)”, the log2 fold change is reported as 0.077. For “UniProt O54865 (peptide sequence: INVSEYTYR, peptide start residue: 562)”, the log2 fold change was -0.339. “UniProt O70325 (peptide sequence: RYGPMEEPQVIEK, peptide start residue: 179)” was tested, and the log2 fold change was 0.372. “UniProt O35490 (peptide sequence: GNYVAEKISGQK, peptide start residue: 87)” showed a log2 fold change of 0.422. “UniProt O54804 (peptide sequence: LFGIFPQGR, peptide start residue: 192)” showed a log2 fold change of -0.12.
